These are yes or no findings as the source states them, for the method shown.
Key:
[1] = target: T1, human Stn1 (D78A/M167A), full length (human) (UniProt Q9H668); test: condition: hTen1 injected at 125 µM into hStn1 at 12 µM; ITC; MicroCal iTC200; hTen1 at 125 µM injected into the cell with hStn1 at 12 µM; 20°C; 300 mM KCl, 25 mM Tris-HCl pH 7.5, 1 mM DTT, 5% glycerol; 2.47 µL injections; both purified
T1 sequence: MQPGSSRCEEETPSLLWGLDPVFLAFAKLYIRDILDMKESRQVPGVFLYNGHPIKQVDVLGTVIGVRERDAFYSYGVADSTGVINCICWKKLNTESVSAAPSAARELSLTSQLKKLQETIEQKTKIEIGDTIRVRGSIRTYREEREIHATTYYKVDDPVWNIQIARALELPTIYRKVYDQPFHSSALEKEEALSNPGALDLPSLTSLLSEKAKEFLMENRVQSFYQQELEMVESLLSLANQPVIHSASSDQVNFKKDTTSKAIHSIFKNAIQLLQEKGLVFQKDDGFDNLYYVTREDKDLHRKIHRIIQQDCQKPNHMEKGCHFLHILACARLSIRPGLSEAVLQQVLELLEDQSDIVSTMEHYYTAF

[2] = target: T2, human Stn1 (D78A/I164A), full length (human) (UniProt Q9H668); test: as above
T2 sequence: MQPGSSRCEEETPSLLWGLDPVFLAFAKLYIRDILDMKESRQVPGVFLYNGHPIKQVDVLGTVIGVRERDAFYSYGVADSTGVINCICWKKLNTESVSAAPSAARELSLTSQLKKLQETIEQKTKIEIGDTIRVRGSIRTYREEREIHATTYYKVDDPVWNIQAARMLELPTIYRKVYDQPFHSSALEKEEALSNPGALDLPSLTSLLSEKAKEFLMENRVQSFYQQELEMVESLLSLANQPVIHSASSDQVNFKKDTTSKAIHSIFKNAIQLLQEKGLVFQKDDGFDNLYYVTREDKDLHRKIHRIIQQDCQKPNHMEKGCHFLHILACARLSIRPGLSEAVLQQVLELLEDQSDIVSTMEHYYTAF

binding [1]: no binding
binding [2]: no binding
B1: human Ten1, full length, wild type (natural protein, UniProt Q86WV5 1-123, looked up)
chain: MMLPKPGTYYLPWEVSAGQVPDGSTLRTFGRLCLYDMIQSRVTLMAQHGSDQHQVLVCTKLVEPFHAQVGSLYIVLGELQHQQDRGSVVKARVLTCVEGMNLPLLEQAIREQRLYKQERGGSQ
notes: human Ten1 (hTen1), subunit of the human CST complex, full length; Purification is described only for the complex with hStn1N (cells mixed before lysis; tags cleaved by TEV); also called hTen1; hTen1(WT); source: E. coli BL21-CodonPlus(DE3) RIPL, purified; not shown: His, N-terminal, cleaved

Reference: publication PMC3691326, “Structure of the Human Telomeric Stn1-Ten1 Capping Complex” (PLoS ONE, 2013)
